The whole screen tested about 52,000 sequences, of which about 210 (0.4%) were called active.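 How the source made its calls: active means gene whose silencing raises cell survival under the drug, median off-target-corrected z-score across its silencing RNAs 2 or more; inactive means the rest.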 The list shows a part of the results.

This experiment in a line: Resistance to Poly (ADP-Ribose) Polymerase inhibitor: Gene Identification via Genome-wide siRNA Screen. Conditions: mouse BRCA2 R2336H ES cells, olaparib, CellTiter-Glo viability; active compounds read high. A digest of the protocol: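 Mouse BRCA2 R2336H ES cells were reverse-transfected with siRNA (20 nM final), treated at 48 h with 500 nM olaparib, and read by CellTiter-Glo after 72 h. Scores: MAD-based z per siRNA, median per gene, seed off-target correction.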
Take CGAAUUCUCUUGGAACAAUTT against Cntn3: the z-score is inactive: 0.773. On to GCUAUGUAUCUUUUGAGAUTT against Chst3, for which the z-score is inactive: -0.0284. On to GGCUCAUCCCAAUGCUAUATT against Sdc3, for which the z-score is inactive: -1.35. Under GGGCAUUUCUUCAGCUAAUTT against Tcfec stands inactive: 0.0712. Then GGGACUCAAAAUCAAGAGATT against Mrps28, with inactive: -0.642. GCCAUUCAAAAAUCAGCCGTT against Ddi2: the z-score was inactive: 0.0176. For the sequence GGGAGGGAUUUAUGUCCUCTT against Slc6a2, the z-score is inactive: 0.0612. On to GUUUGAAGGAUCGGAGAAGTT against LOC435684, for which the z-score is inactive: -0.114. Then GGACCUUGGGCAGAUUCAATT against Atp10d, with inactive: 0.908; and “GCGCGUGACAAGGAGGAUUTT against F630043A04Rik”, with inactive: -1.57. Then “GCUAGCACUAAGUGAACCUTT against 1110018J12Rik”, with inactive: 0.625; and CCUUAAACGACGAGAAGCATT against Hp, with inactive: -0.914; and GGACAUGAAGAAAAGCACCTT against Bin3, with inactive: -0.845.

For the sequence GGCAUCAUCCAAAAUUCCCTT against Amd1, the z-score is inactive: -1.53. As to CCGAUCUGAUAUAGUAGAATT against Stk31, the z-score was inactive: 0.181. As to “CGUCUAACCACCAUUCGGUTT against A730041O15Rik”, the z-score is inactive: 0.0299. Then CCACAGUCCCAGUUUCAAGTT against Mcee, with inactive: 0.808; and GGUUUUGCCUCCCAUAGUATT against Ssty1, with inactive: -0.998; and GGAGAAAGUUGAACGUAUUTT against Cct2, with inactive: -2.73.

With GGUACUCUGUGGAUAUCCCTT against Rpl27, the z-score is inactive: -2.48. Then CCAAGGUGGGUUACAGUGUTT against Zc3hdc3, with inactive: -1.3. In the case of GGCCAAGCAUUACAUUUAUTT against Srp54, the z-score is inactive: 0.134. As to “GGUGAACAUCACUUAUCCCTT against D630024D12Rik”, the z-score was inactive: 0.893. CCAUAUGGUGGUCACGACATT against Tm7sf4: the z-score was inactive: -1.71. Consider GCUAUACCAAGUGGAUAGUTT against Prkaa1, for which the z-score is inactive: -0.0549. Under GCUUAAGCGACUUCAUUGCTT against Ian3 stands inactive: 0.511; under “CGAGAAUGUAGAAAGUGGGTT against C330043M08”, inactive: -0.413; under “GCUCACAUGUUUUAGGUGATT against 1200014M14Rik”, inactive: 0.545.

Regarding GGGACUCCUUUAAAUUUCUTT against Pipox, the z-score is inactive: -0.848. For the sequence “GCAUCACUAGAUUUGGGCATT against 4931414L13Rik”, the z-score was inactive: -0.277. Then GGCACACACCAUAUGGUAATT against Ldb1, with inactive: -0.0726; and CCACUCAUGAAGACGGAAGTT against Abat, with inactive: 0.134.

Take GGAAAGAAUCGAUUUAGACTT against Slc5a4a: the z-score was inactive: 0.921. Regarding GGGAUAGUGUUCCUUAUCUTT against Neu1, the z-score was inactive: 0.539. Turning to GGAUCUUCUACUAUUGAUATT against Paqr5, the z-score was inactive: 0.662. On to GGAAGAAGCAGGUGAUUAATT against Grb14, for which the z-score was inactive: -1.16. Regarding CGACCUAAUGAAGAAUGUCTT against Hmgcr, the z-score was inactive: -2.67. In the case of CGAUUGGUUGUUGUAGACATT against Wbscr21, the z-score was inactive: -0.285.

As to “GGCAAAGCUCCAUCAUCUGTT against 1100001A21Rik”, the z-score was inactive: 0.767.

For the sequence GGCCAUCUUGACACACAUGTT against Wnt4, the z-score was inactive: -0.887. Take GGUGUGAAGGAGAAGUUCATT against Atp6v1a1: the z-score is inactive: 0.129. In the case of GGUCAUUCCUGAGUGCAGGTT against Olfr545, the z-score was inactive: -0.966. Consider GGGUUAGCCAUAGAAGAAGTT against Auh, for which the z-score was inactive: -1.86. As to GGCAUGAGGAUACUGAAGGTT against Klra19, the z-score is inactive: 0.813.

Consider GGCUUAAGUUAGGCAAACUTT against BC011210, for which the z-score was inactive: -1.5. On to CCCAAAGUGCUUUACAAUGTT against Aard, for which the z-score is inactive: 0.796.

Turning to GGUAUUUUUCAAGAUUACGTT against Cdkn1b, the z-score was inactive: -0.398. Then GGUCUUUCAAAUACCCAAATT against Rcor1, with inactive: 1.36; and GGAGAAAUGCUGAUGUCAATT against Ankrd22, with inactive: -0.501; and GCUACCAGGAUAGCGAAACTT against P2rx2, with inactive: -0.223.

As to GGCUCUGCUGGAUAUCAUGTT against Thrap4, the z-score was inactive: 1.5. As for GCAUAGCAGGAAGGCCUUGTT against Htr6, the z-score was inactive: -0.359. Turning to GGCAGUCUAGCUGAAUCAATT against Tnfsf14, the z-score was inactive: -0.806. GCUUAUAAAGUAGUGGUUUTT against Wnt2b: the z-score is inactive: -0.213.

For the sequence GGAAAAAUUUAGACAGCACTT against Csrp2, the z-score was inactive: 1.12. Turning to GGGUUCCAAUGAAGAUCUCTT against Nr1i2, the z-score was inactive: 0.72. Consider GGUCUAUGGCCCAUAUGAATT against Cspg4, for which the z-score is inactive: 0.191. On to GGAUGAGUAUGAGAGGAAUTT against Mitc1, for which the z-score was inactive: 0.717. For GGAGCCAAAUAUUAGCGCGTT against Mglap, the z-score is inactive: -0.268. Turning to GGUCAGAUGUAGAAACAGCTT against Dlgap2, the z-score is inactive: -1.03.

For “GGCGAAAGCCUUGAGGUUGTT against 1500010G04Rik”, the z-score is inactive: 0.767.

Turning to GGCAGAUAAAGAUGGAGCATT against Ndph, the z-score is inactive: -1.82. Consider GUUCCUCCACAUCCUAGACTT against Smr1, for which the z-score was inactive: -0.287. As to GGAAGAAGAAACUCAAGAGTT against Rnf167, the z-score was inactive: 0.465. As to GCAUUAUGAACCGAAAUGUTT against Olfr1265, the z-score was inactive: -0.28. In the case of GGUGCUACGAGUUUUAGAATT against Tcfap2c, the z-score is inactive: 1.06. GGAUGUUCAUCUAUUUCUUTT against Mja1l: the z-score was inactive: -0.191. Take GGAACGUGCAAUGCUUGUUTT against Adm: the z-score was inactive: -0.719.

GCAGGAACGUGAGGACCAUTT against Snip1: the z-score was inactive: 0.492. Turning to CCUGUAUUUUACGAUCUUUTT against Vmd2, the z-score was inactive: 1.19. In the case of GCACUUUGAGAACACUAAUTT against Zfp9, the z-score is inactive: 1.92.

Regarding GGUCAUUCAAUACCAGAUATT against Cd48, the z-score is inactive: -1.56. As to GGAAAGGAACAUAUUUGACTT against Gss, the z-score was inactive: 0.767. Regarding CCUAAUCGAGAAUGAGUUATT against Speer2, the z-score was inactive: 0.464. Under GGCCAACUGUACAAACUCCTT against Tmpit stands inactive: -1.44; under CCUAGUGUGUGCUUUUCGGTT against Akr7a5, inactive: 1.82. On to GCGAAUUGAACAGUUCUCATT against Cwf19l2, for which the z-score was inactive: 0.733. Then “GGAAGCUGAAGGUUUGCCATT against 2510001I10Rik”, with inactive: -0.348.

Take GGCUGCACCAGAAACAUUATT against Vezf1: the z-score was inactive: 1.04. Take GGGUACUUCUCAGGAAUAGTT against Nudt5: the z-score is inactive: 0.785. As for “GGAGAUGUUGGACUUCAUGTT against 4930519N16Rik”, the z-score was inactive: -1.17. As to “GGCUAUCUGAUCAAGCCCATT against 0610009F02Rik”, the z-score is inactive: -0.647. Take GCUUCUGAUAUAGUCAGCCTT against Ptpro: the z-score was inactive: -0.243. Turning to GGAGCUAUCACUUUUCAUUTT against G0s2, the z-score is inactive: -0.202. Under GGACUUUGAACUACCGAAGTT against Usp54 stands inactive: 1.88; under GGUAGCAAAUUUCAAUCUUTT against Hipk1, inactive: 0.733. In the case of GCUUACAGCAAGAUCAAGGTT against Pip5k2b, the z-score was inactive: 0.467.

GGGCUGACCAGUUUGAGUATT against Polr2h: the z-score is inactive: -2.24. As to CCAACUUGUAAUCAAAGGATT against Eif2s2, the z-score is inactive: -1.12.

GGGAUACUACUUUCUAACATT against Thsd2: the z-score was inactive: 0.147. Then GGUGGUCAACCCUCUGUUCTT against Rpl7a, with inactive: -1.21; and CCUACAAUUCUAGGUUACGTT against Snx16, with inactive: -0.928; and GGACUAUGGCUCAGCACUCTT against Ttyh1, with inactive: 0.597.

With CCUGACUCGUAUUAAAACATT against Zbtb7, the z-score is inactive: 0.503. With GGUAACCAUGAUGAUGACATT against D4Ertd89e, the z-score is inactive: 0.176. Consider GGAUCUUUCCUGAUUUAUATT against Ggtla1, for which the z-score is inactive: 1.55. Then GGGCUUCUGCUUCAACAUCTT against 6-Sep, with inactive: 0.657; and GGUAGAUGGGUUUCAUAAUTT against Gpc2, with inactive: -0.576. Turning to GGCGCAACUUGAAACUUACTT against Galnt4, the z-score was inactive: 2.07.

As for GGAAAAUGCAUUUCAGACATT against Ugcg, the z-score was inactive: 0.115. As to GGAUGUCGGUGUGAUUUGCTT against Cd163, the z-score was inactive: 1.54. For the sequence GGAGAGAAACUUCAGAGUGTT against Spon2, the z-score was inactive: 1.42. Consider “GAUCCCUGGAUUGUGGAGUTT against 2310057N15Rik”, for which the z-score was inactive: 0.96. Then CCACAUGCCUGAGAGAUUCTT against Spp2, with inactive: 0.787.

As for GCGGUAUGUACCUGUGAAATT against Exosc3, the z-score is inactive: -3.15. For GCGAUUCCUAGAGCUGAGCTT against Git1, the z-score is inactive: 0.465.

The record behind these values is PubChem BioAssay AID1347423 (Functional Genomics Laboratory (NCATS/FGL), 2020).
